Primary screen of a compound library

By UniProt entry, the sequences of proteins in these tests, tags left out.
UniProt E9BF75, entry or part of it: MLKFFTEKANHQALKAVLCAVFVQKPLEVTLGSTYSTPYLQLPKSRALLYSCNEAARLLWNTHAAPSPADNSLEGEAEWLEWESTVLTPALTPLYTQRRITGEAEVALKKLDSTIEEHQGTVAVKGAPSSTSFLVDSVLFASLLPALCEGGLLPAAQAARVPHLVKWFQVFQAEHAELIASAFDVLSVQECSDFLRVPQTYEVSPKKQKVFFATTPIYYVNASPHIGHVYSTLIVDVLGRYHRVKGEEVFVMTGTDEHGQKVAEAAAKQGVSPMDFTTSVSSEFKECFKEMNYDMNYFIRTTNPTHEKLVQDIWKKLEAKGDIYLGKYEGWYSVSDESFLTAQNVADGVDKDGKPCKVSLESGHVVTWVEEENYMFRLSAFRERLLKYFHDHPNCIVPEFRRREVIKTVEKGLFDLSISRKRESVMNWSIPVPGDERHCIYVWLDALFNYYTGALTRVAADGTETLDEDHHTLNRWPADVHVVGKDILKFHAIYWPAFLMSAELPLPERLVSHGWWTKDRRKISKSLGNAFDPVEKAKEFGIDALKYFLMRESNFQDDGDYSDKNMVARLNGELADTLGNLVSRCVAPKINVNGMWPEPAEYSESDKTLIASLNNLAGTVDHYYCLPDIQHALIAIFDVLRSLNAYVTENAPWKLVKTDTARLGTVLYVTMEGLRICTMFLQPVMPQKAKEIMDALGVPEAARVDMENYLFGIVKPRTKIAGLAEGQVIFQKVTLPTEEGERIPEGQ

The values are deposited in ChEMBL (CHEMBL3988442, “University of Dundee, Small-Polar-MMV Screening Library” (2021)).

Results are percentages, as filed.
The controls that fix the scale are not given in the record; negative values are as filed.
Compounds were drawn at random from those tested, without regard to their results.
A dash means the value is not listed here; it may have been measured.

A: 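Methionyl-tRNA synthetase (putative), Leishmania donovani (UniProt E9BF75). Primary screen of methionyl-tRNA synthetase; the read-out is not stated. The test concentration is not given. The values are filed as inhibition. About 68,000 compounds were tested under these conditions; 0.035% (about 24) showed 50% or more at least once.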
B: 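Assay on Mycobacterium tuberculosis, filed only as a heat shock assay from Cornell; the read-out is not stated. The concentration is filed as 10 mM, unlikely as a test dose, so the dose is not known. Direction is inferred from retests: higher values go with stronger inhibition. Of about 69,000 compounds tested this way, about 930 (1.4%) reached 50% or more in at least one test.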

structure | A | B
COc1ccccc1C(=O)Nc1nc2c(s1)CN(S(=O)(=O)C1CC1)CC2 | 20.4% | 21.76%
c1coc(-c2nnc(CN3CCOC(Cn4cccn4)C3)o2)c1 (stereo not drawn) | 3.286% | 14.87%
CC[C@@H]1N(Cc2ccncc2)CCC[C@]12CCC(=O)N2C.O=C(O)C(F)(F)F.O=C(O)C(F)(F)F | - | -1.051%
Cc1occc1C(=O)N1CCC[C@]2(C[C@@H](OCc3ccccn3)CO2)C1.O=C(O)C(F)(F)F | - | 10.59%
COCc1cc(NCCc2ccc(S(N)(=O)=O)cc2)n2nccc2n1 | 17.46% | -1.149%
CCOC(=O)N1CCN(C(=O)c2cc(-c3ccc(Cl)cc3Cl)on2)CC1 | 13.65% | -5.002%
CCN(Cc1ccco1)C(=O)c1cc(OC)c2c(c1)OCCO2 | 9.155% | 5.635%
CS(=O)(=O)N1CCC2(CN(C(=O)c3cccnc3)C2)C1 | 11.5% | -
O=C(O)C(F)(F)F.O=C(O)C(F)(F)F.O=C(O)C(F)(F)F.c1ccc(CN2CCc3nnc(COc4ccccn4)n3CC2)nc1 | - | -18.73%
O=S(=O)(N1CCCCCC1)N1CCc2sccc2C1 | 9.253% | -32%
CC1CCN(c2ccc(=O)n(CC(=O)NCCc3ccccc3)n2)CC1 | 11.67% | 14.22%
Cc1cnc(CN2CCCCC2c2nc(-c3ccccc3)no2)cn1 (stereo not drawn) | 6.812% | 5.875%
Cc1sc(NS(=O)(=O)c2ccccc2)nc1C(=O)NC1CC1 | 10.3% | 19%
CCC(C)(C)NC(=O)Cn1cc(C(N)=O)c(-c2ccccc2)n1 | 4.032% | 3.16%
Cc1nc(C(=O)N2CCCC(n3cncn3)C2)cs1 (stereo not drawn) | 14.58% | 15.33%
Cc1ccc(OC2CCN(CCn3cncn3)CC2)cc1 | 2.688% | -3.399%
COCCOc1ccccc1C(=O)N1CCCC(c2cc(C)[nH]n2)C1 (stereo not drawn) | 19.94% | -3.542%
O=C(O)C(F)(F)F.[H][C@@]12CCN(CC3CCC3)C[C@@]1([H])[C@H](C(=O)NC1CC1)CCO2 | - | -5.451%
COc1cc(/C=C/c2ncc(C(=O)O)s2)cc(OC)c1 | 0.8065% | -10.41%
Cc1noc(C)c1CC(=O)NCC1(O)CCCN(c2ccccn2)C1 (stereo not drawn) | 7.979% | -28.06%
CCn1nccc1C(=O)NC(Cn1cccn1)C(C)(C)C (stereo not drawn) | 10% | -3.542%
CC(C)(C#N)c1ccccc1CN(CCO)Cc1ccsc1 | 15.74% | -19.58%
O=C(Nc1ccc(F)cc1)C1CNCCN1C(=O)CCO (stereo not drawn) | 3.093% | 20.59%
COc1ccc2c(c1)CN(C)C(=O)CCN2CC(O)C(C)(C)C (stereo not drawn) | 9.041% | 46.8%
CCOC1CCC2(CCN(C(=O)c3c[nH]cn3)CC2)c2ccccc21 (stereo not drawn) | 12.64% | 9.121%
O=C(O)C(F)(F)F.[H][C@@]12CCN(Cc3scnc3C)C[C@]1(C(=O)NCCOC)CCO2 | - | -10.71%
CCC(C)N(Cc1cccnc1)C(=O)c1ccc(F)c(O)c1 (stereo not drawn) | 2.681% | -26.35%
O=C(O)C(F)(F)F.O=C(O)C(F)(F)F.[H][C@@]12COC[C@]1(C(=O)NCc1ccccn1)CN(Cc1ccsc1)C2 | - | -10.83%
CC(=O)N1CC2(CCN(S(=O)(=O)N(C)C)CC2)C2(CCNC2=O)C1 (stereo not drawn) | 12.78% | 11.09%
O=S(=O)(C1CC1)N1CCCC2(COCCN(c3nncs3)C2)C1 (stereo not drawn) | 3.65% | 5.361%
c1ccc(OCCN2CCC(c3nnc(-c4cccnc4)o3)CC2)cc1 | 21.35% | -2.949%
CS(=O)(=O)N1CCOC2(CCCC2)C1 | 19.24% | -8.936%
O=C(O)C(F)(F)F.O=C1CCCN1Cc1nnn2c1CN(c1cccnc1)CCC2 | - | 0.187%
CCC(Nc1nc(C)nc2c1cnn2C)c1ncnn1CC (stereo not drawn) | 8.333% | -15.18%
O=c1ccc(-n2ccnc2)nn1CCNS(=O)(=O)c1ccc(Br)cc1 | 1.439% | -21.61%
O=C(Cc1ccccn1)N1CCN(CC2CC2)c2ncccc2C1 | 20.56% | -181.2%
CSc1ccccc1C(=O)N1CCOC(CCN(C)C)C1 (stereo not drawn) | 9.645% | -10.99%
CN(Cc1cccc(C(N)=O)c1)c1ncc(C(N)=O)cc1Cl | 19.09% | 8.518%
Cc1nc(C)n(C2CCCN(C(=O)COCc3ccccc3)C2)n1 (stereo not drawn) | 9.312% | -3.614%
CC(C)(CNC(=O)CCCOc1cccc(F)c1)C(N)=O | 14.74% | 11.39%
O=C(O)C(F)(F)F.[H][C@]12CCN(S(=O)(=O)CC(C)C)CC[C@@]1([H])S(=O)(=O)CCN2CC(C)C | - | -22%
COCCN1CCN(c2cccc(C)n2)Cc2ccc(C)nc21.O=C(O)C(F)(F)F.O=C(O)C(F)(F)F | - | 28.62%
Cc1oc(-c2cccc(F)c2)nc1CN1CCOCS1(=O)=O | 10.27% | 21.34%
Cc1cnc(CC2COCCN(C(=O)c3cncs3)C2)cn1 (stereo not drawn) | 16.2% | -7.181%
COCCN1CCO[C@@H]2CN(Cc3ccc(C)s3)C[C@@H]2C1 | 14.86% | -
CC(C)c1noc(-c2ccc(NCCCN3CCCC(O)C3)nc2)n1 (stereo not drawn) | 15% | -58.39%
COc1ccc(C(=O)COc2coc(CN3CCSCC3)cc2=O)cc1 | 14.58% | -6.494%
Cc1ccccc1NC1CCN(C(=O)CCc2ccco2)CC1 | 13.33% | 35.59%
CC1CCCCN1c1nc2c(c(=O)[nH]1)CCN(Cc1ccccc1O)C2 (stereo not drawn) | 7.294% | 9.663%
Cc1ncn(CCNC(=O)Nc2ccc(F)c(Cl)c2)c(=O)c1C | 10.45% | 0.1811%
O=C(CN1CCCC1Cn1cncn1)NC(C1CC1)C1CC1 (stereo not drawn) | 4.425% | 11.02%
COCc1noc(C2(c3ccc(F)cc3)CC2)n1 | -1.087% | -22.63%
Cc1cccc(CNCC2COC3(CCCC3)O2)c1C (stereo not drawn) | 5.944% | 3.892%
CCN(C)c1ccc(CNS(=O)(=O)CC2CCCO2)cc1F (stereo not drawn) | -2.308% | 10.46%
O=C(NCC1CC1)[C@@H]1CC[C@@H]2[C@@H](CCN2Cc2ccc(F)c(F)c2)O1 | 19.8% | -
COc1cccc(Cn2c(C3CCNCC3)cc3cccnc32)c1 | 17.19% | -
CCOCCNC(=O)c1cc(Br)c2c(c1)OCCO2 | 17.6% | 0.5332%
CC(=O)N1CCC(NC(=O)N2CCN(c3cnccn3)CC2)CC1 | 16.76% | -2.32%
CCN(CC)C1COc2c(cc(Br)c(C)c2Br)C1=O (stereo not drawn) | 11.62% | 3.562%
COc1cc(F)c(C(C)NC(=O)c2cccnc2C)cc1OC (stereo not drawn) | 13.65% | 8.584%
CC(CNC(=O)N1CCN(c2cnccn2)CC1)Cc1cccs1 (stereo not drawn) | 13.33% | 13.41%
Cc1cccc(CNC(=O)CNc2cc(CO)ccc2Cl)c1 | 19.72% | -19.87%
O=C(NCCc1cccs1)[C@H]1CO[C@H]2CCNC[C@H]2C1 | 14.48% | -
Cc1noc(Cl)c1CCC(=O)N1CCc2sccc2C1 | 18.18% | 35.96%
O=C(C1CCC2(CCN(c3nncs3)CC2)C1)N1CCCC1 (stereo not drawn) | 8.029% | 6.136%
O=C(CS(=O)(=O)Cc1ccc(Br)cc1F)Nc1cn[nH]c1 | 19.16% | 5.056%
CC(=O)N[C@@H]1CN(S(=O)(=O)Cc2ccccc2)C[C@H]1C(C)C | 7.519% | -14.59%
Fc1cccc(O[C@@H]2C[C@H]3CN(Cc4ccncc4)CCN3C2)c1 | 11.54% | -
COc1ccc(CN(C)C(=O)NCc2c(C)cc(C)[nH]c2=O)cc1 | 18.11% | -2.084%
CC(=O)Nc1cc(CN(C)C)ccc1C | 15.04% | -4.411%
COCCN(Cc1ccoc1)S(=O)(=O)c1ccc(OC)c(Cl)c1 | 7.606% | -2.08%

The last 8 entries again:

structure	A	B
Cc1noc(Cl)c1CCC(=O)N1CCc2sccc2C1	18.18%	35.96%
O=C(C1CCC2(CCN(c3nncs3)CC2)C1)N1CCCC1 (stereo not drawn)	8.029%	6.136%
O=C(CS(=O)(=O)Cc1ccc(Br)cc1F)Nc1cn[nH]c1	19.16%	5.056%
CC(=O)N[C@@H]1CN(S(=O)(=O)Cc2ccccc2)C[C@H]1C(C)C	7.519%	-14.59%
Fc1cccc(O[C@@H]2C[C@H]3CN(Cc4ccncc4)CCN3C2)c1	11.54%	-
COc1ccc(CN(C)C(=O)NCc2c(C)cc(C)[nH]c2=O)cc1	18.11%	-2.084%
CC(=O)Nc1cc(CN(C)C)ccc1C	15.04%	-4.411%
COCCN(Cc1ccoc1)S(=O)(=O)c1ccc(OC)c(Cl)c1	7.606%	-2.08%